Source: PubChem BioAssay AID488837 (National Center for Advancing Translational Sciences (NCATS), 2010)
In all, about 330,000 compounds went through this assay and about 20 (0.006%) were called active. The shares of active, inactive and inconclusive entries below differ from those in the screen. Calls follow the shape of the dose curve; as a rule, active = well fitted inhibition curve with a large enough effect; inconclusive = small, poorly fitted or top-dose-only effect, or effect the other way; inactive = flat fitted curve, though single readings scatter. A potency beside an inconclusive call is a rough fit, not a confirmed value.

Protein sequences, listed by entry. Tags and fused reporters are not part of them. Lines headed by an entry give the natural chain unless they say otherwise; changes in a name come on top.
UniProt O00167: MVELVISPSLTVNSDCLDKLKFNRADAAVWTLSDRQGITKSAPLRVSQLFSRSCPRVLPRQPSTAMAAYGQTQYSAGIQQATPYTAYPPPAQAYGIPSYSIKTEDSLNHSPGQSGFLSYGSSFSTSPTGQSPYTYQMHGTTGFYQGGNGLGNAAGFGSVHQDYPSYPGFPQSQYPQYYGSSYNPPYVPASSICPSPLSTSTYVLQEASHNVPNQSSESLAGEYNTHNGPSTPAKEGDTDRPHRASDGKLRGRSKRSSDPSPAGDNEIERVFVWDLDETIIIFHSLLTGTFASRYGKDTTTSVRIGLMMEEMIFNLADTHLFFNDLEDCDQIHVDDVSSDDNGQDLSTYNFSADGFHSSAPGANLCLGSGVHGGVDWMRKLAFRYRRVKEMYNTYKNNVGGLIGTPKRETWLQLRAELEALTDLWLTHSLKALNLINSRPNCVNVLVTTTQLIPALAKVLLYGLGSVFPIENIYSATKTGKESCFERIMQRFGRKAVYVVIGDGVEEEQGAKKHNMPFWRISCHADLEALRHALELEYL

target: Protein phosphatase EYA2 (Homo sapiens) (UniProt O00167); experiment: qHTS Assay for Inhibitors of the Phosphatase Activity of Eya2; settings: recombinant Eya2, OMFP fluorescence dephosphorylation (OMFP is methylfluorescein phosphate); activity, negative = inhibition: at 76.9 µM (top of the series) unless noted
How it was run: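 Eya2 (0.2 uM) preincubated 10 min at ambient with compound, then OMFP substrate added at 50 uM; 10 min reaction in 50 mM HEPES pH 7.5, 50 mM NaCl, 5 uM MgCl2, 0.05% BSA, 1 mM DTT. Fluorescence read at Ex 485/Em 525 nm.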
% is scaled to controls: 0 for no effect and ±100 for the full control effect; potency is read from the fitted curve at half-maximal effect.

Q: For `CCC(C)NC(=O)C1CCC(CNS(=O)(=O)c2ccccc2)CC1` (stereo not given), which activity, negative = inhibition is on record?
A: Its activity, negative = inhibition is inconclusive: -32.5% [inhibitor].

Q: For `Oc1ccc(N=Nc2c(O)ccc3ccccc23)cc1`, which Potency is on record?
A: Its Potency is “inactive”.

Q: `O=C(/C=C\c1cn(-c2ccccc2)nc1-c1ccc2c(c1)OCCO2)N1CCOCC1` was tested. Which Potency did it give?
A: Its Potency is inconclusive: 100 µM [inhibitor, single point].

Q: With `CCN(CC)CCNC(=S)Nc1ccc2nc3n(c(=O)c2c1)CCCCC3` as the compound, how does the Potency read?
A: Its Potency is inconclusive: 100 µM [inhibitor, single point].

Q: Which activity, negative = inhibition does the source give for `COc1cc(C2C=C(c3cccs3)Nc3ncnn32)cc(OC)c1OC` (stereo not given) here?
A: Its activity, negative = inhibition is inconclusive: 107% [activator].

Q: With `O=C1CCN2C=Nc3cccc4ccc1c2c34` as the compound, how does the Potency read?
A: Its Potency is inconclusive: 50.1 µM [activator, partial curve].

Q: For `Cc1cc(=O)[nH]c2c(C)cc(S(=O)(=O)NCc3ccccc3)cc12`, which Potency is on record?
A: The Potency was inconclusive: 22.4 µM [inhibitor, single point].

Q: How did the Potency turn out when `CCOC(=O)C1CCN(c2nc3ccccc3nc2C(C#N)C(=O)NCCc2ccccc2)CC1` (stereo not given) was run?
A: The Potency was “inactive”.

Q: Which Potency does the source give for `Cc1cc(O)c(C(=O)/C=C/c2ccc(C(C)C)cc2)c(=O)o1` here?
A: The Potency was inconclusive: 5620 µM [inhibitor, partial curve, poor fit].

Q: Which Potency does the source give for `CCC(C)Nc1nc(N)c([N+](=O)[O-])c(Nc2cc(OC)ccc2OC)n1` (stereo not given) here?
A: The Potency was inconclusive: 100 µM [inhibitor, single point].

Q: Which Potency does the source give for `O=C(O)c1ccccc1-c1ccc(/C=C/c2cc(C(F)(F)F)[nH]c(=O)n2)o1` here?
A: The Potency was inconclusive: 39.8 µM [activator, partial curve].

Q: With `CSc1nc2sc3c(c2c(=S)[nH]1)CC(C)(C)OC3` as the compound, how does the Potency read?
A: Its Potency is inconclusive: 22.4 µM [inhibitor, single point].

Q: `CCCCC1=CC2=CC(=O)C(C)(OC(=O)CC)C(=O)C2=CN1C(CO)CO` (stereo not given) was tested. Which Potency did it give?
A: The Potency was “inactive”.

Q: For `NS(=O)(=O)c1ccc(NS(=O)(=O)c2ccc(C3CNC(=O)C3)cc2)cc1` (stereo not given), which Potency is on record?
A: The Potency was inconclusive: 25.1 µM [inhibitor, single point].

Q: Which Potency does the source give for `O=S(=O)(NCCCCNS(=O)(=O)c1c(F)cccc1F)c1ccc2c(c1)OCCO2` here?
A: The Potency was “inactive”.

Q: Which Potency does the source give for `C#CCOCCOCCOCCNc1nc(N2CCN(C(=O)CCCCCCCCCCNC(=O)[C@@H](CCSC)n3cc(CCO)nn3)CC2)nc(N2CCN(C(=O)CCCCCCCCCCNC(=O)[C@H]([C@@H](C)CC)n3cc(CCCCN=C(N)N)nn3)CC2)n1` here?
A: Its Potency is inconclusive: 100 µM [inhibitor, partial curve].

Q: How did the Potency turn out when `CC(=O)NCC1CCCN(Cc2cn(-c3ccccc3F)nc2-c2cc(C)sc2C)C1` (stereo not given) was run?
A: Its Potency is inconclusive: 89.1 µM [inhibitor, single point].

Q: How did the Potency turn out when `CC(=O)n1cc(CO)c2ccccc21` was run?
A: The Potency was inconclusive: 89.1 µM [inhibitor, single point].

Q: For `Cn1ncc2c1ncn1nc(CCc3ccccc3)nc21`, which Potency is on record?
A: Its Potency is inconclusive: 70.8 µM [inhibitor, partial curve, poor fit].

Q: How did the activity, negative = inhibition turn out when `COc1ccccc1C(=O)CN1C(=O)NC2(CCc3ccccc32)C1=O` (stereo not given) was run?
A: The activity, negative = inhibition was inconclusive: 45.7% [activator].

Q: With `Cc1ccc(NC(=O)c2ccc(CSc3ccccn3)cc2)c(O)c1` as the compound, how does the Potency read?
A: The Potency was inconclusive: 89.1 µM [inhibitor, single point].

Q: For `NC[C@H]1O[C@@H](n2cnc3c(N)ncnc32)[C@H](O)[C@@H]1O`, which Potency is on record?
A: Its Potency is “inactive”.

Q: With `CC(C)(C)c1ccc(C(=O)N/C(=C\c2ccco2)C(=O)Nc2ccccc2C(=O)O)cc1` as the compound, how does the Potency read?
A: Its Potency is “inactive”.

Q: Which Potency does the source give for `COc1ccc(-c2nnn(-c3cc(Cl)cc(Cl)c3)c2N)cc1` here?
A: Its Potency is inconclusive: 20 µM [inhibitor, partial curve, poor fit].

Q: How did the Potency turn out when `Fc1ccc2nc3c(nc2c1)CCCC3` was run?
A: Its Potency is “inactive”.

Q: `CC1(C)Cc2c(sc3ncn4c(=S)[nH]nc4c23)CO1` was tested. Which Potency did it give?
A: The Potency was “inactive”.

Q: `N#Cc1ccccc1S(=O)(=O)N1CCN(CC(O)COc2ccccc2F)CC1` (stereo not given) was tested. Which Potency did it give?
A: Its Potency is inconclusive: 20 µM [inhibitor, single point].

Q: Which Potency does the source give for `CC(=O)Nc1ccc(OCCOc2ccc(NC(C)=O)cc2)cc1` here?
A: The Potency was inconclusive: 25.1 µM [inhibitor, partial curve, poor fit].

Q: Which Potency does the source give for `Cc1ccc(/C=N/NC(=O)CSc2nc3ccccc3n2C)s1` here?
A: Its Potency is “inactive”.

Q: How did the Potency turn out when `Cc1cc(/C=C2\NC(=S)N(C)C2=O)ccc1N1CCCC1` was run?
A: The Potency was inconclusive: 25.1 µM [activator, partial curve].

Q: `CC1CN(c2nc3ccccn3c(=O)c2/C=C(\C#N)C(=O)N2CCOCC2)CC(C)O1` (stereo not given) was tested. Which Potency did it give?
A: The Potency was inconclusive: 100 µM [inhibitor, single point].

Q: With `CC(=O)Oc1ccc(N2C(=O)C3C(C2=O)C(C(=O)c2ccc(Cl)cc2)N2CCCC32)cc1` (stereo not given) as the compound, how does the Potency read?
A: Its Potency is inconclusive: 126 µM [inhibitor, partial curve, poor fit].

Q: Which Potency does the source give for `CC1(C)Cc2[nH]c3ccccc3c2C(C)(C)N1` here?
A: Its Potency is inconclusive: 100 µM [inhibitor, single point].

Q: `O=C(c1ccc(N2CCC3(CC2)OCCO3)c([N+](=O)[O-])c1)N1CCOCC1` was tested. Which Potency did it give?
A: Its Potency is inconclusive: 112 µM [inhibitor, single point].

Q: Which Potency does the source give for `CCN1CCSc2ccc(C(=O)NCc3ccc(OC(C)C)cc3)cc21` here?
A: The Potency was inconclusive: 35.5 µM [inhibitor, single point].

Q: For `C#CCOCCOCCOCCNc1nc(N2CCN(C(=O)CCCCCCCCCCNC(=O)[C@H](CCCCN)n3cc(C)nn3)CC2)nc(N2CCN(C(=O)CCCCCCCCCCNC(=O)[C@@H]([C@H](C)CC)n3cc(CCCCCN)nn3)CC2)n1`, which Potency is on record?
A: Its Potency is “inactive”.

Q: Which Potency does the source give for `COc1ccc(C(=O)N/N=C2\CCc3ccccc32)cc1OC` here?
A: The Potency was inconclusive: 39.8 µM [inhibitor, partial curve, poor fit].

Q: With `COc1ccc(CNC(=S)Nc2ccccc2Cl)cc1` as the compound, how does the Potency read?
A: The Potency was inconclusive: 22.4 µM [inhibitor, single point].

Q: How did the Potency turn out when `COc1cccc2cc(C(C)N(CCCN3CCOCC3)C(=S)Nc3ccc(C)c(C)c3)oc12` (stereo not given) was run?
A: Its Potency is “inactive”.

Q: Which Potency does the source give for `O=C(NCCN1CCOCC1)c1c(O)nc2sccn2c1=O` here?
A: Its Potency is “inactive”.

Q: For `O=C(Nc1ccc(N2CCCC2)cc1)c1cccc(-c2cc3ccccc3oc2=O)c1`, which Potency is on record?
A: Its Potency is “inactive”.

Q: Which Potency does the source give for `COc1cc(NC(=O)CSc2nnnn2C2CCCC2)cc(OC)c1` here?
A: The Potency was inconclusive: 20 µM [inhibitor, single point].

Q: `CC(C)C(=O)Nc1cc2c3c(c1)CCN3C(=O)CC2` was tested. Which Potency did it give?
A: Its Potency is inconclusive: 100 µM [inhibitor, single point].

Q: `O=C(CCCN1C(=O)/C(=C/c2ccco2)SC1=S)Nc1ccccc1C(=O)O` was tested. Which Potency did it give?
A: The Potency was “inactive”.

Q: `Cc1ccc(Nc2ncccc2C(=O)NCc2cccs2)c(C)c1` was tested. Which Potency did it give?
A: The Potency was inconclusive: 20 µM [inhibitor, single point].

Q: Which Potency does the source give for `COc1ccc(C(CNC(=O)c2ccc(-n3cnnn3)cc2)N2CCOCC2)cc1` (stereo not given) here?
A: Its Potency is “inactive”.

Q: `Cc1cn(CCC(=O)Nc2ccccc2N2CCOCC2)c2ccccc12` was tested. Which activity, negative = inhibition did it give?
A: Its activity, negative = inhibition is inconclusive: -51.5% [inhibitor].

Q: `CC1(C)CC(O)C(CCC(O)c2ccccc2)C(C)(C)N1` (stereo not given) was tested. Which Potency did it give?
A: The Potency was “inactive”.

Q: How did the Potency turn out when `CC(C#N)Sc1ncnc2sc3c(c12)CCC3` (stereo not given) was run?
A: Its Potency is “inactive”.

Q: With `COc1cc(NC(=O)C2C3C=CC(C3)C2C(=O)O)ccc1NC(=O)c1ccccc1` (stereo not given) as the compound, how does the Potency read?
A: The Potency was “inactive”.

Q: `COc1ccc(/C=N/NC(=O)c2cccc(Br)c2)cc1Cn1cc(Cl)cn1` was tested. Which Potency did it give?
A: Its Potency is inconclusive: 200 µM [inhibitor, single point].

Q: How did the Potency turn out when `Cc1ccc(C(=O)Nc2cc3[nH]c(=O)oc3cc2C)cc1` was run?
A: The Potency was inconclusive: 39.8 µM [inhibitor, partial curve].

Q: For `NS(=O)(=O)c1ccc(N/N=C/c2ccc(O)cc2O)c([N+](=O)[O-])c1`, which Potency is on record?
A: The Potency was “inactive”.

Q: For `N#Cc1ccsc1NC(=O)c1ccccn1`, which Potency is on record?
A: Its Potency is “inactive”.

Q: Which Potency does the source give for `CCN(CC)CCCN(Cc1cc2cc(OC)ccc2[nH]c1=O)C(=O)Nc1ccccc1` here?
A: Its Potency is inconclusive: 89.1 µM [inhibitor, single point].

Q: Which Potency does the source give for `CCCc1[nH]nc2c1C(c1ccncc1)C(C#N)=C(N)O2` (stereo not given) here?
A: Its Potency is inconclusive: 22.4 µM [inhibitor, single point].

Q: `Cc1ccc(CNC(=O)C2CN(S(C)(=O)=O)c3cc(Cl)ccc3O2)cc1` (stereo not given) was tested. Which Potency did it give?
A: Its Potency is inconclusive: 89.1 µM [inhibitor, single point].

Q: Which Potency does the source give for `CC[n+]1c(/C=C/N(C)c2ccccc2)n(-c2ccccc2)c2ccc(-c3nc4ccccc4s3)cc21` here?
A: The Potency was inconclusive: 89.1 µM [inhibitor, single point].

Q: With `c1ccc(C2CC(c3cccs3)Nc3nnnn32)cc1` (stereo not given) as the compound, how does the Potency read?
A: The Potency was inconclusive: 224 µM [inhibitor, partial curve, poor fit].

Q: With `COc1ccc(-c2noc(N3CCC(C(=O)NCc4ccc(Cl)cc4)CC3)n2)cc1` as the compound, how does the Potency read?
A: Its Potency is “inactive”.

Q: With `CC(C)(C)N1CC(OC(N)=O)C1` as the compound, how does the Potency read?
A: The Potency was inconclusive: 100 µM [inhibitor, single point].

Q: Which Potency does the source give for `COc1ccc(-c2c(NC(=O)c3ccco3)oc3c(C)cccc3c2=O)cc1` here?
A: The Potency was inconclusive: 89.1 µM [inhibitor, partial curve].

Q: `CCOCC(O)CNc1ccccc1` (stereo not given) was tested. Which Potency did it give?
A: The Potency was “inactive”.

Q: For `Cn1ccc(C(=O)N/N=C/c2ccccc2[N+](=O)[O-])n1`, which Potency is on record?
A: Its Potency is inconclusive: 100 µM [inhibitor, single point].

Q: How did the Potency turn out when `CCc1ccccc1Nc1nn2c(=O)c3ccc(C(=O)NCc4ccccn4)cc3nc2s1` was run?
A: Its Potency is inconclusive: 89.1 µM [inhibitor, single point].

Q: How did the Potency turn out when `O=C(CCNc1cc(Cl)cc(Cl)c1)c1cccs1` was run?
A: Its Potency is “inactive”.

Q: For `Cc1cccc(NC(=O)c2ccc(C(=O)c3ccccc3)cc2)n1`, which Potency is on record?
A: Its Potency is “inactive”.

Q: Which Potency does the source give for `CC(=O)Nc1ccc(C(=O)OCC(=O)NCc2ccc(Cl)cc2)cc1` here?
A: Its Potency is inconclusive: 17.8 µM [inhibitor, single point].

Q: With `CN(C)C(CNC(=O)c1ccc(Cl)c(S(=O)(=O)N2CCCCCC2)c1)c1ccccc1` (stereo not given) as the compound, how does the Potency read?
A: The Potency was inconclusive: 178 µM [inhibitor, single point].

Q: How did the Potency turn out when `CCc1cc(C(=O)c2ccc(OC)cc2)c(NC(=O)CN2CCCC2)s1` was run?
A: Its Potency is inconclusive: 1410 µM [inhibitor, partial curve, poor fit].
